# Results of single-concentration screens

Chains of the proteins cited; added tags and fusions are not shown. Residues count along the entry.
UniProt A4I591, 1-473: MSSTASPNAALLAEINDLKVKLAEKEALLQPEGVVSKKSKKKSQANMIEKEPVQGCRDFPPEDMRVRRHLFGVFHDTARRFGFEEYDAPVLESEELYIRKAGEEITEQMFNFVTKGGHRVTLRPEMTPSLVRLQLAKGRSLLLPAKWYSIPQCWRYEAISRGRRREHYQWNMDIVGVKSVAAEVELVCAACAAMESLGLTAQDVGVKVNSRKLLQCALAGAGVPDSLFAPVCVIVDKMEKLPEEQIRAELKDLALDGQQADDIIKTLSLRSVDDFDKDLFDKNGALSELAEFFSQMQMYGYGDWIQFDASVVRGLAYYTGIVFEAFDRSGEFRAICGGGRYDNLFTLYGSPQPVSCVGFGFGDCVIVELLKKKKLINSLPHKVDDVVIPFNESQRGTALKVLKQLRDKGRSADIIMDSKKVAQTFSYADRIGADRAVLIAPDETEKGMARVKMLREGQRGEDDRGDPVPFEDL

The values are deposited in ChEMBL (CHEMBL3988442, “University of Dundee, Small-Polar-MMV Screening Library” (2021)).

Values are the deposited “Percent Effect”, in %.
The controls that fix the scale are not given in the record; negative values are as filed.
Compounds were drawn at random from those tested, without regard to their results.

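Enzyme assay of histidyl-tRNA synthetase; the read-out is not stated. Target: Histidine-tRNA ligase, Leishmania infantum (UniProt A4I591). Tested at 30 µM. Higher reads as stronger inhibition (inferred: compounds with an IC50 in retests scored well above the rest). The assay is labelled LdHisRS but filed under L. infantum. About 69,000 compounds were tested under these conditions; 0.6% (about 410) showed 50% or more at least once.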

Result for Clc1cnccc1N1CCCC2(CCCOC2)C1 (stereo not shown) was 16.42%.
Result for N#Cc1cccnc1N1CCCN(C(=O)CCc2nccs2)CC1 was 10.71%.
Result for Cc1csc(CN2CC[C@H]3C[C@H](c4ccncn4)O[C@@H]3C2)n1 was 5.263%.
Result for Cc1cnn(C2CCCN(C(=O)c3sccc3C#N)C2)c1 (stereo not shown) was -4.255%.
Result for O[C@@H]1CN(CC2=Cc3cc(Cl)ccc3OC2)CC[C@H]1N1CCCCCC1 was 10%.
Result for Cc1noc(C)c1S(=O)(=O)N1CCC(Oc2ccccn2)CC1 was 10.43%.
Result for COc1ccc(C(=O)NCc2ccco2)nn1 was 20%.
Result for CC(C)c1cc(N2CCC(C(C)N3CCCC3)CC2)n2nccc2n1 (stereo not shown) was 69.44%.
Result for CO[C@H]1C[C@@H]2CN(C(=O)c3cc4cccc(F)c4[nH]3)C[C@@H]2C1 was 13.04%.
Result for CCN(C(=O)CN1CCCC1Cc1ccccc1)c1ccccc1 (stereo not shown) was 4.464%.
Result for Cc1ccc(C(=O)NCCNC(=O)c2cncnc2C(C)C)cc1F was 21.88%.
Result for CCO[C@H]1C[C@@H](O)C12CCN(C(=O)CC(F)(F)F)CC2 was 1.266%.
Result for O=C([C@H]1CC[C@@H]2[C@@H](CCN2Cc2ccsc2)O1)N1CCOCC1 was 17.14%.
Result for COCC(NC1CCSCC1)c1ccnn1C (stereo not shown) was 2.041%.
Result for COCCN1CCN(Cc2noc(C3CC3)n2)CC1C (stereo not shown) was -34.83%.
Result for COc1cc(C)nc(N2CCN(C(=O)CCc3cccs3)CC2)n1 was 12.9%.
Result for Cc1cc(=O)n(CC(=O)NCC2CCCO2)c(-c2cccc(Cl)c2)n1 (stereo not shown) was 14.15%.
Result for COc1cc(-c2cc(NC3CCCC3)nc3[nH]ccc23)nc(N)n1 was 12.77%.
Result for CCNc1cc2c(nn1)CCN(C(=O)c1ccoc1)C2 was 27.43%.
Result for Cc1ccc(CN2CC[C@@H](N3CCOCC3)[C@@H]2Cc2cccnc2)o1 was 13.89%.
Result for Cc1noc(C)c1CN1CCC2(CC1)CC(Oc1cccnc1)C2 was 20.69%.
Result for COCC(=O)N1C[C@H]2CNC[C@@]2(C(=O)NCc2nc(C)cc(C)n2)C1 was 21.43%.
Result for CC(NC(=O)NC1CCN(Cc2ccccn2)CC1)c1ccco1 (stereo not shown) was 19.74%.
Result for Cc1ccccc1-c1csc2c(=O)[nH]c(N3CCCC(C(=O)O)C3)nc12 (stereo not shown) was -1.739%.
Result for Cc1nc(CC(=O)N2CCC(c3ccn4nccc4n3)CC2)cs1 was 5.369%.
Result for O=C(NC1CC1)c1cc2c(s1)CCN2C(=O)C1CC1 was 11.32%.
Result for Cn1c(-c2ccc(F)cc2)cn2cc(C(=O)N3CC[C@@H](O)C3)nc2c1=O was 16%.
Result for CCn1c(CC2CCN(C(=O)C3CCOC3)CC2)nn(C)c1=O (stereo not shown) was 25.25%.
Result for CCC(=O)N1CCC(c2nc(N3CCOCC3)ncc2S(C)(=O)=O)CC1 was 1.342%.
Result for Cc1noc(CS(=O)(=O)C/C=C/c2ccccc2)n1 was 13.68%.
Result for CC(=O)NCc1cc2n(n1)CCN(Cc1cc(-c3ccccc3)no1)C2 was 13.25%.
Result for Cc1cnn(CC2CN(Cc3csc(C(C)C)n3)CCO2)c1 (stereo not shown) was 7.965%.
Result for CCNCc1ccc(OCc2ccc3c(c2)OCCO3)cc1 was -5%.
Result for O=S(=O)(Nc1cnc(N2CCOCC2)nc1)c1cccc(F)c1 was 13.56%.
Result for Cc1ccc(NC(=O)N2CCC3(CCC(C(=O)N(C)C)O3)CC2)cc1 (stereo not shown) was 7.921%.
Result for Cc1nn(C)c(C)c1C1SCC(=O)Nc2c1c(O)nn2C(C)C (stereo not shown) was 15.79%.
Result for Cc1cccc(N2CCCC3(C2)CN(S(C)(=O)=O)CCO3)c1 (stereo not shown) was 22%.
Result for Cc1cc(CN(C)Cc2csc(-c3ccc(C(C)C)cc3)n2)no1 was 11.69%.
Result for CCC/C=C/c1ccc(CN2CCCC2)cn1 was 40.32%.
Result for Cc1cccc(CN(Cn2nc(C)c3c(C)onc3c2=O)C2CC2)c1 was 16.67%.
Result for CC(=O)Nc1ccc(CCC2(NC(=O)C3CCCO3)CCCCC2)cn1 (stereo not shown) was 2.857%.
Result for Cc1cccc(NC(=O)C2CSc3ncc(C)c(=O)n3C2)n1 (stereo not shown) was 17.95%.
Result for CCn1cnnc1CNC(=O)N(C)C(C)c1cccs1 (stereo not shown) was 10.71%.
Result for CNc1ncccc1CN1CCN(C)CC(C(=O)N(C)C)C1 (stereo not shown) was 1.429%.
Result for CCc1ncc2c(n1)CN(C(=O)c1c(C)[nH]c(C(C)=O)c1C)C2 was 17.95%.
Result for C=C(Br)CN(C)C1CCN(CCc2ccccn2)CC1 was 10.91%.
Result for CCc1nc(CN2CCN(C(C)c3nc(C4CC4)no3)CC2)no1 (stereo not shown) was 13.68%.
Result for O=C1CO[C@H]2CN(Cc3cccnc3)C[C@H]2N1 was 20.27%.
Result for Cc1nccc(C(=O)N2CCCC2c2c(C)nn(C)c2C)n1 (stereo not shown) was 6.087%.
Result for CC(C)NC(=O)c1nnn(-c2ccccc2)c1C1CC1 was 16.05%.
Result for CN(CC(=O)N(C)C(c1ccc(Cl)cc1)c1cccnc1)C1CC1 (stereo not shown) was 8.696%.
Result for CC(C)(C)OC(=O)NCCC(=O)NCC(O)c1cccc(F)c1 (stereo not shown) was 11.29%.
Result for Cc1noc(C)c1-c1cccc(C2CCCNC2)n1 (stereo not shown) was 8.966%.
Result for O=C(CC1COCCN1)NCCc1nc(Cc2ccccc2)no1 (stereo not shown) was 5.759%.
Result for Cc1nc2c(c(NC3CCN(Cc4ccccc4)CC3)n1)CCNCC2 was 12.99%.
Result for CCc1nc(CCn2cc(-c3nccn3C)nn2)no1 was 13.16%.
Result for Cc1noc(CN(CCc2ccco2)Cc2cccc(C#N)c2)n1 was 8.929%.
Result for O=C(NCc1cccnc1)NCC(O)c1cccc(C(F)(F)F)c1 (stereo not shown) was 11.67%.
Result for Cc1ccnc(NCCCN2CCc3ccccc32)n1 was 44.83%.

For reference, 5 entries once more:

CNc1ncccc1CN1CCN(C)CC(C(=O)N(C)C)C1 (stereo not shown) read 1.429%.
Cc1noc(C)c1-c1cccc(C2CCCNC2)n1 (stereo not shown) read 8.966%.
Cc1ccnc(NCCCN2CCc3ccccc32)n1 read 44.83%.
Cc1nc2c(c(NC3CCN(Cc4ccccc4)CC3)n1)CCNCC2 read 12.99%.
Cc1cccc(N2CCCC3(C2)CN(S(C)(=O)=O)CCO3)c1 (stereo not shown) read 22%.